This note sets out measurements from publication PMC10173541.

Protein sequences, listed by entry. Tags and fused reporters are not part of them.
UniProt Q8BWG8: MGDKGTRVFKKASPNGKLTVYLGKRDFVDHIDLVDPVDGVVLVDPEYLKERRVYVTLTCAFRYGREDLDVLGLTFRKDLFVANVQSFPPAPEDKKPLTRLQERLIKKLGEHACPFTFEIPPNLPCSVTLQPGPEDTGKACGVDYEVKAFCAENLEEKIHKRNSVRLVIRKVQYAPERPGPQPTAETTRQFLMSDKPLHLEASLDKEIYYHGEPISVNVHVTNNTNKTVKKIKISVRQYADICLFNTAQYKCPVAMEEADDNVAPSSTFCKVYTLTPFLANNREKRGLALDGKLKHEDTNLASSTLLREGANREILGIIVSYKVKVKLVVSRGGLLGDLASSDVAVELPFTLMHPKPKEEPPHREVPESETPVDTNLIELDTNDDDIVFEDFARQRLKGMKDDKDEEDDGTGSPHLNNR
UniProt Q8K1M6: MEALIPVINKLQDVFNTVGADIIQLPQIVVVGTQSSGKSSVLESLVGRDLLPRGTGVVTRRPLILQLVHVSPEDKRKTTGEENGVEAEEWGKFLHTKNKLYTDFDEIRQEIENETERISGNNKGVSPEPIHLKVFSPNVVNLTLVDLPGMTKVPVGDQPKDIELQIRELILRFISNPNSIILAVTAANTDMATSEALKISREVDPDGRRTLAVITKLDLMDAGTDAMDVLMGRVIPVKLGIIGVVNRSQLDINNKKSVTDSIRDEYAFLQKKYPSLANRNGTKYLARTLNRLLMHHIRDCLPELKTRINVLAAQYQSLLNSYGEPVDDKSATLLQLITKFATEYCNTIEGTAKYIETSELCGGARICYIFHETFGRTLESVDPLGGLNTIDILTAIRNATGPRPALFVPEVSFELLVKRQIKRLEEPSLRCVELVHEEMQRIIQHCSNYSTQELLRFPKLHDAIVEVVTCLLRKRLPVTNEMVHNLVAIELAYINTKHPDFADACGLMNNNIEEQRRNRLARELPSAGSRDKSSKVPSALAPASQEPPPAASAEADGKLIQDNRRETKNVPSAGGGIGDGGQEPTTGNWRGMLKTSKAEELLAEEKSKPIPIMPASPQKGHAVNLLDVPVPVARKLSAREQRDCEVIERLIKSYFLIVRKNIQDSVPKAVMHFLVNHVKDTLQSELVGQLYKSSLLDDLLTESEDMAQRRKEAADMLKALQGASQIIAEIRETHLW

The target in experiment [1] is β-arrestin1 (pcDNA3.1 construct) (UniProt Q8BWG8). The experiment can be described thus: co-IP; Flag-tagged Drp1 and β-arrestin1 pcDNA3.1 constructs co-transfected in HEK293T cells; lysates immunoprecipitated with anti-Drp1 or anti-β-arrestin1 antibody, then immunoblotting. On the technique in general: Immunoblotting shows a protein as a band on a membrane.
Experiment [2] has as its target β-arrestin1 (mouse (endogenous in primary astrocytes)) (UniProt Q8BWG8). Put plainly: co-IP; lysates of primary astrocytes (WT or β-arrestin1-/-; CON-MCM or LPS-MCM; with or without carvedilol pretreatment) incubated with anti-β-arrestin1, anti-Drp1 or anti-Fis1 antibody overnight, protein A/G-agarose beads 4 h at 4 °C, washed with cold PBS, western blot.
Experiment [3] deals with dynamin-related protein 1 (Drp1) (mouse (endogenous in primary astrocytes)) (UniProt Q8K1M6). The experiment is described as above.

Results are given in words; binding and its absence hold for the method and conditions named. In cells and extracts the contact can be indirect. Some entries that bind do so weakly or less than the wild type.

For “Flag-tagged Drp1 (from UniProt Q8K1M6 1-736)”, in experiment [1], the binding result is listed as “binds”.

“dynamin-related protein 1 (Drp1) (from UniProt Q8K1M6 1-736)”: in experiment [2], the binding entry is “binds”.

B1: mitochondrial fission 1 (Fis1) (protein, UniProt Q9CQ92 1-152)
chain: MEAVLNELVSVEDLKNFERKFQSEQAAGSVSKSTQFEYAWCLVRSKYNEDIRRGIVLLEELLPKGSKEEQRDYVFYLAVGNYRLKEYEKALKYVRGLLQTEPQNNQAKELERLIDKAMKKDGLVGMAIVGGMALGVAGLAGLIGLAVSKSKS
For B1, the binding result in experiment [3] is listed as “binds”.
